# Patent US20080206374A1 (priority 2003, published 2008)
# Where a name gives a salt, the structure may show the parent alone.
# Test system: experimental acute myocardial ischemia of dogs
# Assay: experimental acute myocardial ischemia and myocardial infarction of anesthetized dogs (coronary artery ligature)
# Assay type: in vivo
# Details: Dose/kg 0.5 mg, femoral vein
# Protocol: The experimental medicaments were prepared with physiological saline to the same volume (50 ml), and injected through femoral vein at a speed of 5 ml/min with the computer minim syringe pump (Type AJ-5803, Shanghai).
# The animals were anaesthetized with pentobarbital sodium (30 mg/kg, i.v), and connected with an electric respirator after tracheal intubation. The chest was opened in the position of the 4th left rib to expose the heart. The pericardium was cut out to make a pericardial bed. The laevorotatory branch of coronary artery was separated and a probe of an electromagnetic flowmeter (Type MF-1100) was placed in to measure the blood flow of coronary artery. […] The coronary artery was ligated for 15 minutes and recorded as a control value before medicaments administration. […] At 51 15, 30, 45, 60, 90, 120, and 180 minutes after medicament administration, 30 measuring points of the epicardium electrocardiogram were recorded. […] After intubation through the […] into the coronary vein sinus, the blood oxygen content of coronary vein was measured by a blood oxygen instrument (Type AVL912, Swiss) while the blood samples were taken before ischemia, ischemia 15 min (before administration), at 15, 30, 60, 120, and 180 minutes after medicament administration. […] It was calculated together with the blood flow of coronary artery to measure the myocardial oxygen consumption: […]
smiles,measurement,setting,value
"COc1ccc([C@@H]2Sc3ccccc3N(CCN(C)C)C(=O)[C@@H]2OC(C)=O)cc1 [Herbesser, Diltiazem Hydrochloride]",Ventricular Area,180 minutes,3883.1 ± 859.8 mm^2
same,Heart Area,heart taken 180 minutes after administration,11838.0 ± 2981.1 mm^2
